Among all 310,000 compounds or so, about 17,000 (5.5%) were called active. This list was built around the results that the source calls inconclusive (neither active nor inactive); the mix of calls is not that of the screen. Calls follow the shape of the dose curve; as a rule, active = well fitted inhibition curve with a large enough effect; inconclusive = small, poorly fitted or top-dose-only effect, or effect the other way; inactive = no such curve, though single readings can be large or run the other way. A potency beside an inconclusive call is a rough fit, not a confirmed value.
What follows are molecules tested against Nuclear receptor ROR-gamma (Mus musculus) (UniProt P51450) (assay: qHTS for inhibitors of ROR gamma transcriptional activity). Details: Drosophila S2 Gal4-RORgamma UAS-luciferase reporter, 20 h; activity change, negative = inhibition: at 53.6 µM (top of the series).
Summary of the method: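 Stable Schneider cell line, Gal4 DNA-binding domain fused to ROR gamma, UAS-luciferase. Cmpd 1 hr RT → CuSO4 700 uM final → 20 hr RT → luciferase reagent 10 min → luminescence.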
% is scaled to controls: 0 for no effect and ±100 for the full control effect; potency is read from the fitted curve at half-maximal effect.
Also: nearly all actives have a fitted effect of over 60% in size.

Amino acid sequences for entries named in this document (tags omitted). A change or cut given only in a name is not applied to a line headed by its entry.
UniProt P51450: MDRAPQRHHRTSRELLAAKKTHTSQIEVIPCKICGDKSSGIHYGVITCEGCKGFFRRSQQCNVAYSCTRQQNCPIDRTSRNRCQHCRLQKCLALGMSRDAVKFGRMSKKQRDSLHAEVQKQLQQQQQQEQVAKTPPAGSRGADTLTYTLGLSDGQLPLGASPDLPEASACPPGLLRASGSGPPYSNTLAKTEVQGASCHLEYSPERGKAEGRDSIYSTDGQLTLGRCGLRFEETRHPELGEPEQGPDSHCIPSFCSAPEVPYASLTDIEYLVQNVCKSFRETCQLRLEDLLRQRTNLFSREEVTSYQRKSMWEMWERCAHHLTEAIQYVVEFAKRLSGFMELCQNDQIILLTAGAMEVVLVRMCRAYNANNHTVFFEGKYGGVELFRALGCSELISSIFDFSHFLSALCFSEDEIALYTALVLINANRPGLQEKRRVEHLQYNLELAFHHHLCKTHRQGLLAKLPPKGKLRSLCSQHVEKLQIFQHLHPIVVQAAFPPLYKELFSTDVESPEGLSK

Structure (SMILES) | activity change, negative = inhibition | Potency
COC(=O)C1=C(C)N(CC2CCCO2)C(=O)C1 (centres undefined) | inactive: -1.64% | 
COc1ccc(C(=O)Nc2sc(C(=O)N(C)C)c(C)c2C#N)cc1[N+](=O)[O-] |  | inconclusive: 12.6 µM [inhibitor, partial curve, poor fit]
Cc1ccc(S(=O)(=O)N/N=C\c2cccnc2)cc1 |  | inconclusive: 1.12 µM [activator, full curve, poor fit]
COc1ccccc1C(=O)N/N=C(\C)c1ccc(NC(=O)C2CC2)cc1 |  | inconclusive: 6.31 µM [activator, single point]
CC(C)CSc1n[nH]c(=S)s1 |  | active: 10 µM
COc1ccc2oc(-c3ccco3)cc(=O)c2c1 |  | inconclusive: 35.5 µM [inhibitor, single point]
Cc1ccc(NC(=S)NC2CCN(Cc3ccccc3)CC2)cc1 |  | active: 12.6 µM
Cc1nc(NC(=O)c2cc3ccccc3o2)sc1C |  | active: 10 µM
CC(C)CN1CCC(=O)N(C(CSc2ccc(Br)cc2)Cc2ccccc2)CC1 (centres undefined) |  | inconclusive: 10 µM [activator, partial curve]
CCOC(=O)c1c(-c2ccc(OC)cc2)csc1/N=C/C1=C(O)CCCC1=O |  | inconclusive: 35.5 µM [inhibitor, single point]
CCCCNC(=S)Nc1ccc(C(F)(F)F)cc1 |  | active: 4.47 µM
Cc1ccc(-n2c(C)cc(C(=O)CSc3nnnn3C)c2C)cc1 |  | inconclusive: 1 µM [activator, full curve]
O=C(/C=C/c1ccccc1[N+](=O)[O-])Nc1cccnc1 |  | inconclusive: 1.41 µM [activator, partial curve]
Cc1c(CCOC(=O)CC23CC4CC(CC(C4)C2)C3)sc[n+]1Cc1ccccc1 | inactive: 35.1% | 
Cn1c(CCc2ccccc2)n[nH]c1=S |  | active: 12.6 µM
O=C(NCCNC(=O)c1ccco1)c1ccco1 |  | active: 15.8 µM
COc1ccc(-c2noc(N3CCC(C(=O)NCc4ccc(Cl)cc4)CC3)n2)cc1 |  | inconclusive: 11.2 µM [inhibitor, partial curve, poor fit]
COC(=O)c1cc(NC(=O)c2ccccc2)c(=O)oc1/C=C/Nc1ccc(Oc2ccccc2)cc1 |  | inconclusive: 5.62 µM [activator, single point]
O=C(CN1CCOCC1)N/N=C/c1cc2ccccc2nc1Cl | inactive: -21% | 
CC(=O)c1cccc(S(=O)(=O)NCC(C)(C)N2CCOCC2)c1 | inactive: -20.5% | 
Oc1ccc(Cl)cc1-c1cc(-c2cccc(Br)c2)n[nH]1 |  | inconclusive: 15.8 µM [inhibitor, single point]
S=c1nc(-c2csc3c2CCCC3)[nH][nH]1 |  | active: 3.98 µM
Oc1ccc(Br)cc1C=Nc1cccn2cc(-c3ccccc3)nc12 |  | inconclusive: 22.4 µM [inhibitor, single point]
CCOC(=O)N1CCN(S(=O)(=O)c2ccc(Br)s2)CC1 |  | inconclusive: 5.62 µM [inhibitor, single point]
Cc1cccc(NC(=O)COc2cccc3c2CCN(Cc2ccccc2)C3=O)c1C |  | inconclusive: 28.2 µM [activator, single point]

Structure (SMILES) | activity change, negative = inhibition | Potency
CCN(CC)CCCC(C)n1c(-c2ccccc2)nc2c(NCCO)nc(C)nc21 (centres undefined) | inactive: -16.7% | 
CN1/C(=C\C(=O)c2cccs2)C(C)(C)c2ccccc21 |  | inconclusive: 3.55 µM [activator, full curve]
N#CCCn1c(=O)c(-c2ccc(F)cc2)nc2cnc(N3CCNCC3)nc21 | inactive: 3.85% | 
O=C(NCc1ccccc1)C(c1ccc(F)cc1)N(Cc1ccc2c(c1)OCO2)C(=O)Cn1nnc(-c2cccs2)n1 (centres undefined) | inactive: 21.3% | 
COc1ccc(C2(CNC(=O)c3cc([N+](=O)[O-])cc([N+](=O)[O-])c3)CCCC2)cc1OC |  | inconclusive: 20 µM [activator, single point]
c1ccn2c(SCc3ccc4c(c3)OCCO4)nnc2c1 |  | inconclusive: 0.631 µM [activator, full curve]
CCN(CC)c1ccc(/C=N/N(c2ccccc2)c2ccccc2)c(O)c1 |  | inconclusive: 15.8 µM [inhibitor, single point]
O=S(=O)(Nc1ccc2ccccc2n1)c1ccc2c(c1)CCO2 |  | inconclusive: 11.2 µM [activator, partial curve]
Cc1cc(OCC(=O)Nc2ccncc2)c(C)cc1Br |  | inconclusive: 35.5 µM [inhibitor, single point]
CCOc1ccc(-c2nnn(CC(=O)NCc3ccco3)n2)cc1 |  | inconclusive: 0.447 µM [inhibitor, partial curve]
O=C(O)CSc1nnc(-c2ccccc2)c(-c2ccccc2)n1 |  | inconclusive: 3.98 µM [inhibitor, partial curve]
S=C(Nc1ccc2nsnc2c1)NC1CCCCC1 |  | active: 2.51 µM
COc1ccc(/C=N/NC(=O)c2cccc(Br)c2)cc1Cn1cc(Cl)cn1 |  | inconclusive: 22.4 µM [inhibitor, single point]
Cn1c(=O)c2c(nc(N/N=C/c3cccs3)n2Cc2ccccc2)n(C)c1=O |  | inconclusive: 35.5 µM [inhibitor, single point]
COc1cc(NC(=O)C2C3C=CC(C3)C2C(=O)O)ccc1NC(=O)c1ccccc1 (centres undefined) | inactive: -21.7% | 
CC[C@@H]1CC=C[C@H]2[C@H]1C(=O)N(Cc1ccccc1)[C@H]2c1ccoc1 |  | inconclusive: 31.6 µM [inhibitor, single point]
COc1cc(NC(=O)CSc2nc3c(c(=O)n(C)c(=O)n3C)n2C)cc(OC)c1 | inactive: -38.2% | 
CCOC(=O)c1c(C)[nH]c(C(=O)COC(=O)c2ccc(O)cc2O)c1C |  | inconclusive: 2.24 µM [inhibitor, partial curve]
O=C(Cc1ccccc1)N1CCCC1c1ccccc1 (centres undefined) | inactive: 26.5% | 
Cc1ccc(/C=C/C(=O)NCCc2cccc(Cl)c2)o1 |  | inconclusive: 35.5 µM [inhibitor, single point]
CCOc1ccccc1N1CSC2=C(C#N)C(c3c(OC)ccc4ccccc34)CC(=O)N2C1 (centres undefined) |  | inconclusive: 25.1 µM [inhibitor, single point]
CC(C)CN1C(=O)c2ccc(NC(=O)c3cccs3)cc2C1=O |  | inconclusive: 4.47 µM [activator, partial curve]
CC(C)(C)OC(=O)NCC12C=CC(O1)C1C(=O)N(Cc3ccccc3)C(=O)C12 (centres undefined) |  | inconclusive: 15.8 µM [inhibitor, single point]
CN(CCNC(=O)C1CCN(S(=O)(=O)c2cnc[nH]2)CC1)Cc1ccccc1 | inactive: -11.7% | 
Cc1cccc(N2CCN(C(=O)/C=C/c3cccs3)CC2)c1C |  | inconclusive: 35.5 µM [inhibitor, single point]

Structure (SMILES) | activity change, negative = inhibition | Potency
O=S(=O)([N-]c1nc2ccccc2nc1-n1cc[n+](Cc2ccccc2)c1)c1ccc(Cl)cc1 | inactive: 6.06% | 
COCCNC(=S)N1CCN(c2nc3ccccc3s2)CC1 | inactive: -0.461% | 
Cc1ccsc1C(=O)N1CCCC(CCC(=O)NCc2ccc(F)c(F)c2)C1 (centres undefined) |  | inconclusive: 31.6 µM [activator, single point]
COc1ccc(C(=O)NC2CCCc3ccccc32)cc1 (centres undefined) | inactive: -12.3% | 
O=C(CCCN1C(=O)/C(=C/c2ccco2)SC1=S)Nc1ccccc1C(=O)O | inactive: 4.67% | 
COc1ccc(-c2cnc3c(c2)CCC3(C#N)C#N)cc1 |  | inconclusive: 12.6 µM [activator, partial curve]
COc1ccc(OCC(=O)N/N=C(\C)CC(=O)Nc2ccc(OC)cc2[N+](=O)[O-])cc1 |  | inconclusive: 25.1 µM [inhibitor, single point]
Cc1ccc(Cl)c(NC(=S)N(CCCN2CCOCC2)Cc2ccco2)c1 |  | active: 8.91 µM
Cc1cc(C)n(-c2nnc(NCc3ccc(Cl)cc3)nn2)n1 |  | inconclusive: 2.82 µM [inhibitor, partial curve]
Cc1c(CCC(=O)N2CCC(C(=O)O)(c3ccccc3)CC2)c(=O)oc2cc3oc4c(c3cc12)CCCC4 |  | active: 1.12 µM
c1ccc2c(c1)[nH]c1c3ccccc3sc21 | inactive: -12.2% | 
COC(=O)CSc1nnc(-c2sc3ccccc3c2Cl)o1 |  | inconclusive: 12.6 µM [inhibitor, partial curve, poor fit]
O=C(c1cccc(S(=O)(=O)N2CCCC2)c1)c1nnc(-c2ccncc2)o1 | inactive: 8.31% | 
Cc1ccc2nc(-c3ccc(NS(C)(=O)=O)cc3)cc(-c3ccccc3)c2c1 |  | inconclusive: 35.5 µM [inhibitor, single point]
COc1ccc(N2CCN(C(=O)CSc3ncccc3-c3nc4ccccc4[nH]3)CC2)cc1 | inactive: 20% | 
O=[N+]([O-])C(=C1Nc2ccccc2N1)/C(Cl)=C(/Cl)Br |  | inconclusive: 12.6 µM [inhibitor, single point]
CN1CCN(C(=O)CN(C2CCCCC2)S(=O)(=O)c2ccc(Br)cc2)CC1 | inactive: -11.8% | 
O=C(O/N=C(\c1ccccc1)c1ccccn1)c1ccc(Cl)c(Cl)c1 |  | inconclusive: 0.891 µM [inhibitor, full curve, poor fit]
Cc1cc(=O)[nH]c(N/N=C/c2ccc(-c3ccc(F)cc3)o2)n1 | inactive: -44.8% | 
Cn1cccc1CC(=O)NNC(=S)NC(=O)c1ccccc1Br |  | inconclusive: 22.4 µM [inhibitor, single point]
COc1ccc([N+](=O)[O-])cc1NC(=O)Cn1ccsc1=N | inactive: 2.09% | 
CCN(CC)C(=O)C1=C(C)Nc2nc3ccccc3n2C1c1cccc(OC)c1 (centres undefined) |  | inconclusive: 7.94 µM [inhibitor, single point]
Cc1nnc(NC(=O)c2ccc(S(=O)(=O)N3CCc4ccccc4C3)cc2)o1 |  | active: 1.26 µM
Cc1cccc(C(=O)Nc2cccc3c2CCCC3)c1 | inactive: 2.8% | 

Of the compounds above, these contain a cyano group:
Structure (SMILES) | activity change, negative = inhibition | Potency
COc1ccc(C(=O)Nc2sc(C(=O)N(C)C)c(C)c2C#N)cc1[N+](=O)[O-] |  | inconclusive: 12.6 µM [inhibitor, partial curve, poor fit]
N#CCCn1c(=O)c(-c2ccc(F)cc2)nc2cnc(N3CCNCC3)nc21 | inactive: 3.85% | 
CCOc1ccccc1N1CSC2=C(C#N)C(c3c(OC)ccc4ccccc34)CC(=O)N2C1 (centres undefined) |  | inconclusive: 25.1 µM [inhibitor, single point]
COc1ccc(-c2cnc3c(c2)CCC3(C#N)C#N)cc1 |  | inconclusive: 12.6 µM [activator, partial curve]
